Test results taken from paper PMC9425028.

B1: wild-type recombinant mouse MASP-3 fused with PA-tag (WT rmMASP-3-PA) [mouse] / mouse mannose-binding lectin C (MBL-C) [mouse (endogenous in serum of C57BL/6J mice)] (parent)
chain 1: HTVELNEMFGQIQSPGYPDSYPSDSEVTWNITVPEGFRIKLYFMHFNLESSYLCEYDYVKVETEDQVLATFCGRETTDTEQTPGQEVVLSPGTFMSVTFRSDFSNEERFTGFDAHYMAVDVDECKEREDEELSCDHYCHNYIGGYYCSCRFGYILHTDNRTCRVECSGNLFTQRTGTITSPDYPNPYPKSSECSYTIDLEEGFMVSLQFEDIFDIEDHPEVPCPYDYIKIKAGSKVWGPFCGEKSPEPISTQTHSVQILFRSDNSGENRGWRLSYRAAGNECPKLQPPVYGKIEPSQAVYSFKDQVLVSCDTGYKVLKDNEVMDTFQIECLKDGAWSNKIPTCKIVDCGAPAGLKHGLVTFSTRNNLTTYKSEIRYSCQQPYYKMLHNTTGVYTCSAHGTWTNEVLKRSLPTCLPVCGQPSRALPNLVKRIIGGRNAELGLFPWQALIVVEDTSRVPNDKWFGSGALLSESWILTAAHVLRSQRRDNTVIPVSKEHVTVYLGLHDVRDKSGAVNSSAARVILHPDFNIQNYNHDIALVQLQKPVPLGAHVMPICLPRPEPEGPAPHMLGLVAGWGISNPNVTVDEIILSGTRTLSDVLQYVKLPVVSHAECKASYESRSGNYSVTENMFCAGYYEGGKDTCLGDSGGAFVIFDEMSQHWVAQGLVSWGGPEECGSKQVYGVYTKVSNYVDWLWEEMNSPRAVRDLQVER
chain 2: ETLTEGVQNSCPVVTCSSPGLNGFPGKDGRDGAKGEKGEPGQGLRGLQGPPGKVGPTGPPGNPGLKGAVGPKGDRGDRAEFDTSEIDSEIAALRSELRALRNWVLFSLSEKVGKKYFVSSVKKMSLDRVKALCSEFQGSVATPRNAEENSAIQKVAKDIAYLGITDVRVEGSFEDLTGNRVRYTNWNDGEPNNTGDGEDCVVILGNGKWNDVPCSDSFLAICEFSD

Variants of: B1
Test: immunoprecipitation with anti-PA tag antibody beads from mouse serum, Western blot band intensity
Conditions: with mouse mannose-binding lectin C (MBL-C) [mouse (endogenous in serum of C57BL/6J mice)]; TBS containing 7 mM MgCl2 and 5 mM CaCl2 (TBS/Mg/Ca); parent: 1; read off a plot

| Variant | ratio to parent |
| --- | --- |
| chain 1 D102A | 0.12 |
| chain 1 E49A | 0.05 |

Now from value to variant:

| ratio to parent | Variant |
| --- | --- |
| 0.12 | chain 1 H218A |
| 0.07 | chain 1 Y225A |
